Laboratory results: publication PMC6317315
These are yes or no findings as the source states them, for the method shown. Binding calls can cover weak binding; strength is not graded here. For some of these results: Sequences can lack the tags named with a protein. One block for each molecule: values may come before it.

Sequences of proteins named here, by UniProt entry; tags and fusion partners are left off. A change or cut given only in a name is not applied to a line headed by its entry.
UniProt Q23096: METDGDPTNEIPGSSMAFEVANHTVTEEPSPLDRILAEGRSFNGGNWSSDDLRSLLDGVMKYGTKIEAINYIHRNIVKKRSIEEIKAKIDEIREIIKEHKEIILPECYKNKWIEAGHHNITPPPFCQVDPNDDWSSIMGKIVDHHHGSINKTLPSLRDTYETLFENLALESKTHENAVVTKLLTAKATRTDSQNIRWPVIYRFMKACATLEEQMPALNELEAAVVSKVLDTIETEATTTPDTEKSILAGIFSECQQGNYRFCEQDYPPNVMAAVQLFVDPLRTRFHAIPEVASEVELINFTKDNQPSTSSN

Assays:
[1] = target: T1, piRNA silencing-defective 1 (PRDE-1) (C. elegans (endogenous in N2 animals)) (UniProt O17828); assay: SEC; 5 mL worm nuclear extract on Superose6 xK 16/70, 1-mL fractions, TCA precipitation, Western blot for PRDE-1 and TOFU-5
T1 sequence: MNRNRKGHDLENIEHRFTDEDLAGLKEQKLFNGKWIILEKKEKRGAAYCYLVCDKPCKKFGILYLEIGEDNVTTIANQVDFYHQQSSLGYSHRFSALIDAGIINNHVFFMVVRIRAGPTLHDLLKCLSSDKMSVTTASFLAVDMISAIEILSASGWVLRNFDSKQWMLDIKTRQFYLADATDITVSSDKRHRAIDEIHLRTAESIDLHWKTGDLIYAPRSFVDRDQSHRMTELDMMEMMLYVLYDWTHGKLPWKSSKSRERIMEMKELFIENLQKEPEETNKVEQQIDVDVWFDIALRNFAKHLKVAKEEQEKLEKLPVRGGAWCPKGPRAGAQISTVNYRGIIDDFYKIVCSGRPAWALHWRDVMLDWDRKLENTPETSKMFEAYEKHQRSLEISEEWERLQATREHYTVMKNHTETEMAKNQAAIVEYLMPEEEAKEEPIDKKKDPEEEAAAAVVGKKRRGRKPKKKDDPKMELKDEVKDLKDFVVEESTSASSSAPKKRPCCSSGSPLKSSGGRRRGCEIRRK

[2] = target: T2, full-length C. elegans SNPC-4 protein (amino acids 1–928), yeast two-hybrid fusion (C. elegans) (UniProt P91868); assay: two-hybrid; LexA-DBD baits in pB27 screened by mating against a random-primed C. elegans mixed-stage cDNA library in pP6; selection without Trp, Leu, His (0.5 mM 3-aminotriazole for LexA-Prde-1); Hybrigenics Services
T2 sequence: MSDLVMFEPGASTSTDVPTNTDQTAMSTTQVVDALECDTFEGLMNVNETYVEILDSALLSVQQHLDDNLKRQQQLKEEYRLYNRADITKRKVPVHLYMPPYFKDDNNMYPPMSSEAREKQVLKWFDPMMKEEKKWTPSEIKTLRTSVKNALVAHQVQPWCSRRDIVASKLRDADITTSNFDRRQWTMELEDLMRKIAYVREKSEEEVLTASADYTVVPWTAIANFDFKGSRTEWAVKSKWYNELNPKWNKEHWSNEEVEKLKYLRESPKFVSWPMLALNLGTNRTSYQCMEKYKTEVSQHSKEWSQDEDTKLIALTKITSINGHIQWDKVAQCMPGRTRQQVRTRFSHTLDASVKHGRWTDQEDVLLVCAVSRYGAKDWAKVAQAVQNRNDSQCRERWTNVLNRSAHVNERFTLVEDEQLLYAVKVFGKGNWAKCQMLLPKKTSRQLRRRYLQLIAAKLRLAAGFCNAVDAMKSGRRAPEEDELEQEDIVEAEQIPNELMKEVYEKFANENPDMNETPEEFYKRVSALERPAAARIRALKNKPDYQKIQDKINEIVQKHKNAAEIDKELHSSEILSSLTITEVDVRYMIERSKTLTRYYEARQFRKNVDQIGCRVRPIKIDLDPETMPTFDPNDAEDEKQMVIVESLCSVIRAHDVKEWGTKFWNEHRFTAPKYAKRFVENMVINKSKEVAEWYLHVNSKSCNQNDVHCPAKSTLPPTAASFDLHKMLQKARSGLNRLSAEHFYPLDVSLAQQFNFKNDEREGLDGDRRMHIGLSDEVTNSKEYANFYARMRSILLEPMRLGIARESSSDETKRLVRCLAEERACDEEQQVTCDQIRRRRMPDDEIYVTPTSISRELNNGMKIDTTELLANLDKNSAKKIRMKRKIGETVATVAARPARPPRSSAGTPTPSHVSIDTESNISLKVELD

[3] = target: T3, full-length C. elegans PRDE-1 protein (amino acids 1–526), yeast two-hybrid fusion (C. elegans) (UniProt O17828); assay: as above
T3 sequence: T1 sequence

[4] = target: full-length C. elegans TOFU-5 protein (amino acids 1–311), yeast two-hybrid fusion (C. elegans) (UniProt Q23096); assay: as above

Molecule: full-length C. elegans TOFU-5 protein (amino acids 1–311), yeast two-hybrid fusion (from UniProt Q23096)
binding [2]: binds

B1: full-length C. elegans SNPC-4 protein (amino acids 1–928), yeast two-hybrid fusion (protein, UniProt P91868-2 1-928)
chain: T2 sequence
binding [4]: binds

Other lines, results leading:

binding [1]: binds
Molecule: twenty-one-U fouled-up 5 (TOFU-5) (from UniProt Q23096)

binding [3]: binds
Molecule: C. elegans TOFU-4 protein fragment (amino acids 1–223), yeast two-hybrid fusion (domain or fragment)
